Results on 13 compounds are retold here after PubChem BioAssay (NCATS).

One may read the AC50 as the concentration at which the activity in the assay is half-maximal.

Several values for one entry are separate records, joined by “and”; a condition that tells them apart may be missing. Equal values may be shown once. Some of the results follow. The main result of the screen is listed elsewhere. These columns were measured beside it and carry no call. For some assays here: The list favours compounds with an active or inconclusive main result. For some assays here: Potencies come from curve fits of mixed quality, noted in brackets.

A short description of assay [1]: S16 Schwann cell PMP22 intronic element beta-lactamase assay (AID 624044). The settings on record: S16 rat Schwann cells, PMP22 element beta-lactamase FRET, 24 h. The procedure, abridged: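 Beta-lactamase reporter under a PMP22 intronic regulatory element in stable S16 rat Schwann cells; 24 h compound exposure. 460 nm blue signal normalized between DMSO (0%) and potassium clavulanate, with 535 nm FRET tracking viability; curves classed by r2 and response.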

Assay [2] can be described thus: qHTS drug screen for cell cycle checkpoint inhibitors in PARPi-resistant BRCA-mutant ovarian cancer cell lines. (AID 1963452). The settings on record: PEO1/OlaR viability, CellTiter-Glo luminescence, 96 h. The procedure, abridged: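 PEO1, PEO4 and PEO1/OlaR ovarian cancer cells, 600 per well, exposed 96 h at 37C to a dilution series. Viability read by CellTiter-Glo luminescence, normalized to DMSO and empty wells; activity summarized as Z-AUC.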
(In qHTS, concentration-response curves come from the screen itself.)

A short description of assay [3]: qHTS for identification of novel therapeutic agents for treatment of microphthalmiaassociated transcription factor (MiT) renal cell carcinoma (RCC) (AID 1963991).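 On z-score: curves scaled with 100% = DMSO viability and 0% = empty wells.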 The settings on record: CellTiter-Glo, 48 h; for z-score: stronger effect = lower value. The method, boiled down:
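UOK109/UOK124/UOK145 (TFE3 fusions, three partners); 500 cells/well; MIPE v4.0, 1912 cpds, 11 conc.; 48 h, 37 C; CellTiter-Glo, 15 min RT; lum. Norm.: DMSO 100%, empty 0%.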

A short description of assay [4]: qHTS Assay for Modulators of Human Peripheral Myelin Protein 22 (PMP22) Expression/Activity (AID 1967). The settings on record: Cell-based PMP22 reporter, dual-color luciferase ratio. The procedure, abridged:
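MSC80 mouse Schwann cells stably carrying Pmp22 promoter–green click beetle luciferase plus EF-alpha–red luciferase control were dosed for 24h at 37 °C. Dual-colour luminescence was filter-overlap corrected; %Activity came from green/red ratio versus untreated cells.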

A short description of assay [5]: Nrf2 qHTS screen for inhibitors: Validation (AID 493153). The settings on record: A549 ARE-Fluc reporter, 18-24 h; AC50: CellTiter-Fluor fluorescence read, measured here: cytotoxicity CellTiter-Fluor AC50; viability change: measured here: cytotoxicity max response. The method, boiled down: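 In this counterscreened reporter format, each well gives two signals: CellTiter-Fluor fluorescence for cytotoxicity and ARE-luciferase luminescence for Nrf2 function. A549 ARE_Fluc cells in 5% FBS OPTI-MEM were exposed to compound titrations for 18-24 h.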

Assay [6] in a line: qHTS assay for small molecule antagonists of retinoid X receptor alpha signaling (AID 588546).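 Further: cells stimulated with 9-cis-retinoic acid as agonist; on the % scale 0 is the no-effect control and ±100 the full control effect.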 The settings on record: HEK293T RXRa-UAS-bla, beta-lactamase ratio, antagonist mode; measured here: W530 green channel, cytotoxicity proxy. The procedure, abridged: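 Beta-lactamase reporter inhibition, read as CCF4 fluorescence ratio (ex 405, em 460/530 nm) after 2 h at RT. HEK293T UAS-bla cells, 2500/well, were stimulated with 9-cis-RA at 500 or 100 nM final alongside test compound for 18 h at 37 C.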

The nature of assay [7]: qHTS assay for small molecule antagonists of peroxisome proliferator-activated receptor gamma signaling (AID 588537). The settings on record: HEK293 PPARg-UAS-bla, beta-lactamase ratio, antagonist mode; measured here: W460 blue channel. The method, boiled down: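 Cell-based beta-lactamase assay; GW9662 served as the antagonist control. Stimulation used rosiglitazone, final 50 nM, 16 h, 37 C.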

Assay [8] in a line: qHTS Validation Assay to Find Inhibitors of Chronic Active B-Cell Receptor Signaling (AID 485345). The settings on record: ABC-DLBCL cells, chronic BCR signaling reporter. The method, boiled down:
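Read-out: ratio of filter-corrected green (IkappaBalpha fusion) to red (native) luciferase signal in doxycycline-induced TMD8 cells after 4 h at 37C. Titration spanned 46 uM–3 nM; Data were normalised to basal cells and 10 uM MG-132 wells.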

The nature of assay [9]: qHTS assay for small molecule antagonists of vitamin D receptor signaling (AID 588541). The settings on record: HEK293T VDR-UAS-bla, beta-lactamase ratio, antagonist mode; measured here: W460 blue channel (cell viability).
A short description of assay [10]: qHTS assay for small molecule agonists of retinoid X receptor alpha signaling (AID 588544). The settings on record: HEK293T RXRa-UAS-bla, beta-lactamase reporter, 18 h; 530 nm emission.
Assay [11] is described as follows: qHTS assay for small molecule antagonists of peroxisome proliferator-activated receptor delta signaling (AID 588535).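 Further: cells co-treated with a PPAR-delta agonist as stimulator during compound exposure.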 The settings on record: HEK293T PPARd-UAS-bla, beta-lactamase FRET ratio, 18 h; 460 nm channel. The method, boiled down:
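Antagonist-mode qHTS using GeneBLAzer PPAR-delta-UAS-bla HEK293T cells; compound exposure 18 hrs at 37 C over a titration. Ratiometric CCF4 fluorescence at 460/530 nm; concentration-response points fitted to the Hill equation.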

[12] abbreviates: measured here: 530 nm viability channel.
The mark [13] stands for this setting: measured here: PEO1 parental viability.
Setting [14] is: TFE3-RCC UOK109 viability, measured here: UOK109 Z-AUC.
[15] abbreviates: TFE3-RCC viability, measured here: UOK124 Z-AUC.
The mark [16] stands for this setting: TFE3-RCC viability, measured here: UOK124 cell viability.
Where [17] appears, read: TFE3-RCC viability, measured here: UOK145 Z-AUC.
[18] abbreviates: TFE3-RCC viability, measured here: UOK145 cell viability.
The mark [19] stands for this setting: measured here: CBR control luciferase (viability counter).

`C=CCNC1=C2C[C@@H](C)C[C@H](OC)[C@H](O)[C@@H](C)/C=C(\C)[C@H](OC(N)=O)[C@@H](OC)/C=C\C=C(/C)C(=O)NC(=CC1=O)C2=O`: the AC50 in assay [1] (setting [12]) is 0.251 µM [rising, full curve]; in assay [2] (measured here: PEO4 viability), 15.5 µM [falling, single point].
As for `COCCNCCCn1c(C(=O)CF)c(-c2ccc(C)cc2)c2c(N)ncnc21`, the AC50 in [2] (setting [13]) is 27.5 µM [falling, single point]; in assay [3] (setting [16]) it was 16.6 µM [falling, partial curve]; in assay [3] (setting [18]), 20.9 µM [falling, partial curve, poor fit]. The z-score in assay [3] (setting [14]) is -0.0374; in assay [3] (setting [15]), -0.145; in assay [3] (setting [17]), 0.643.
On to `NC12CC3CC(CC(C3)C1)C2`, for which the half-maximal activity concentration (AC50) was 37.9 µM [rising, single point] in assay [4] (measured here: red reporter channel AC50, EF-alpha promoter control reporter in MSC80 mouse Schwann cells); 29.1 µM [rising, single point] in assay [5]; 1.55 µM [rising, partial curve, poor fit] in [2] (setting [13]); 11.8 µM [falling, full curve] in assay [3] (setting [18]). In [5], the viability change was found to be 31%. Further, the z-score in assay [3] (setting [14]) was -0.0289; in assay [3] (setting [15]), 0.737; in assay [3] (setting [17]) it was 0.347.
As to `Oc1ccc(OCc2ccccc2)cc1`, the AC50 is 9.51 µM [falling, partial curve] in assay [1] (measured here: 460 nm blue channel) and 17.4 µM [falling, single point] in assay [2] (measured here: PEO4 viability).
With `Cc1cccc(-c2[nH]c(C(C)(C)C)nc2-c2ccc3nccnc3c2)n1`, the viability change in assay [5] was -12.8%. For the same compound, the half-maximal activity concentration (AC50) in assay [2] (measured here: PEO4 viability) is 24.5 µM [falling, single point]; in assay [3] (setting [16]), 33.2 µM [falling, single point]. Besides, the z-score in assay [3] (setting [14]) is 1.11; in assay [3] (setting [15]), 1.52; in assay [3] (setting [17]), 1.14.
For the compound `S=P(N1CC1)(N1CC1)N1CC1`, the max response in assay [6] is -6.1%. The AC50 in assay [2] (setting [13]) is 27.5 µM [falling, single point]; in [3] (setting [18]), 18.7 µM [falling, partial curve, poor fit]. Further, the results for the z-score in [3] (setting [14]), in assay [3] (setting [15]) and in [3] (setting [17]) were 0.68, 0.928 and 0.216, respectively.
Regarding `CCCc1cc(=O)[nH]c(=S)[nH]1`, the AC50 is 14.1 µM [falling, partial curve, poor fit] in [7] and 0.0871 µM [rising, full curve, poor fit] in assay [2] (setting [13]). Besides, the z-score turned out to be 0.0778 in assay [3] (setting [14]), 0.92 in assay [3] (setting [15]) and 0.221 in [3] (setting [17]).
For the compound `C[C@]12CCC(=O)C=C1CC[C@@H]1[C@@H]2[C@@H](O)C[C@@]2(C)[C@H]1CC[C@]2(O)C(=O)CO`, the AC50 is 0.0291 µM [rising, full curve] in assay [8] (setting [19]); 44.7 µM [rising, partial curve, poor fit] in assay [9]; 1.74 µM [rising, partial curve, poor fit] in [2] (setting [13]). Moreover, the max response in assay [10] came to 34.1%.
Turning to `CC(C)C(=O)Nc1ccc([N+](=O)[O-])c(C(F)(F)F)c1`, the AC50 in [7] was 0.0251 µM [falling, full curve, poor fit]; in assay [2] (setting [13]) it was 0.0692 µM [falling, full curve, poor fit]; in assay [3] (setting [16]), 2.96 µM [falling, partial curve, poor fit]; in assay [3] (setting [18]) it was 4.18 µM [falling, full curve]. Further, in [10], the max response was 15.8% and 10.5%. For the same compound, the z-score in assay [3] (setting [14]) was -0.348; in assay [3] (setting [15]), 0.0897; in [3] (setting [17]), -0.758.
As to `C#Cc1cccc(Nc2ncnc3cc(OCCOC)c(OCCOC)cc23)c1`, the AC50 in [1] (setting [12]) is 14.1 µM [rising, partial curve]; in [2] (measured here: PEO4 viability) it was 15.5 µM [falling, partial curve]; in assay [3] (setting [16]) it was 20.9 µM [falling, partial curve, poor fit]; in assay [3] (setting [18]) it was 3.32 µM [falling, full curve].
As to `Nc1ccc(S(N)(=O)=O)cc1`, in assay [11], the max response was 56.9%. Besides, the AC50 in assay [2] (setting [13]) was 0.049 µM [rising, full curve, poor fit].
`CC(C)N1[N]C(=C2C=c3cc(O)ccc3=N2)c2c(N)ncnc21`: the half-maximal activity concentration (AC50) is 6.62 µM [falling, partial curve] in assay [3] (setting [16]) and 3.72 µM [falling, partial curve] in assay [3] (setting [18]).
In the case of `O=C(/C=C/c1ccc(O)cc1)c1ccc(O)cc1O`, the AC50 was 0.757 µM [rising, full curve, poor fit] in assay [4] (measured here: green reporter channel AC50, mouse Pmp22 promoter in mouse Schwann cells); 18.4 µM [falling, partial curve] in assay [8] (measured here: CBG/CBR ratio read-out); 14.6 µM [falling, partial curve] in [8] (setting [19]); 17.4 µM [falling, single point] in [2] (measured here: PEO4 viability).
